Reference: article PMC9570217
Construct, isoform or probe ends are uncertain for at least one entry. At least one result comes from cells or an extract, where the contact may be indirect. For some of these results: The comparison behind a weaker result is the experiment's own reference, which may not be listed here.

The chains behind the UniProt entries cited, without tags or fusion partners.
UniProt P08047, whole entry: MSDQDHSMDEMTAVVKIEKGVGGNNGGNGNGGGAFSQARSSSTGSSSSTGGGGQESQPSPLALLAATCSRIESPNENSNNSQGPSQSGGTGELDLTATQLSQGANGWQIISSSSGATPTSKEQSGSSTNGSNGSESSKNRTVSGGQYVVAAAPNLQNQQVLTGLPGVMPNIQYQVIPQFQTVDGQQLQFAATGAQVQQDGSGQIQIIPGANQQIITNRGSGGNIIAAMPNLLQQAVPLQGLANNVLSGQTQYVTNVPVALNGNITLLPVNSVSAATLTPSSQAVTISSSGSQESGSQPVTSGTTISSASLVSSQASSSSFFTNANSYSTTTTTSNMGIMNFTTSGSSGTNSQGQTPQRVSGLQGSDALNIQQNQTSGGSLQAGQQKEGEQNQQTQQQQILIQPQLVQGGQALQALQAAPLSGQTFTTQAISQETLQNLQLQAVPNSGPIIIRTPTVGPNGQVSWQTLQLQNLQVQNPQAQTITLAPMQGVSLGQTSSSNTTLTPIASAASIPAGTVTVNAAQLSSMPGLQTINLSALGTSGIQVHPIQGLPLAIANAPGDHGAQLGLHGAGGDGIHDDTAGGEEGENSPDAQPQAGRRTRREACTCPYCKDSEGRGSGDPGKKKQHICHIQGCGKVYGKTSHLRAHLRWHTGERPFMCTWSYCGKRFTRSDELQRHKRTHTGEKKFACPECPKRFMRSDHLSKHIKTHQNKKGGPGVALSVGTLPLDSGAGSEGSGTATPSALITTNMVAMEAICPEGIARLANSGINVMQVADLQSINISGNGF
UniProt P23511, whole entry: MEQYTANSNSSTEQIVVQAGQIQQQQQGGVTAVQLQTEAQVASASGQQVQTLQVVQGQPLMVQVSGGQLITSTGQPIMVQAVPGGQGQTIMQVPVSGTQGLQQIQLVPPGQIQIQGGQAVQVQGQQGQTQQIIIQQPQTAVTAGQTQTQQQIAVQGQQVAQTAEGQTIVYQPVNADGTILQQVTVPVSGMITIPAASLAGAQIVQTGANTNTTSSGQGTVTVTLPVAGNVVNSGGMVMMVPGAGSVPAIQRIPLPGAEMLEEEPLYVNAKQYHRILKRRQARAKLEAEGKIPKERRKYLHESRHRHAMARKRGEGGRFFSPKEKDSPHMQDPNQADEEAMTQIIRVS

Assays:
[1] = biological target: SP1 (Homo sapiens (HeLa nuclear extract, HeLaScribe)) (UniProt P08047); test: EMSA with antibody (complex hampered by anti-SP1) and self-competition; settings: HeLa nuclear extract; 10 mM Tris-HCl pH 7.0, 50 mM KCl; likely ug) poly dI-dC, 5% glycerol, 1 mM EDTA, 1 mM DTT; 6 ug HeLa nuclear extract, 10 fmol probe, 4 °C; protein in an …
[2] = biological target: NFY (NFYA subunit identified) (Homo sapiens (HeLa nuclear extract, HeLaScribe)) (UniProt P23511); test: competition with a labelled probe; settings: unlabeled competitor, capacity to compete impaired; 10 mM Tris-HCl pH 7.0, 50 mM KCl; likely ug) poly dI-dC, 5% glycerol, 1 mM EDTA, 1 mM DTT; 6 ug HeLa nuclear extract, 10 fmol probe, 4 °C; protein in an extract; label: none (unlabeled competitor)
[3] = biological target: SP1 (Homo sapiens (HeLa nuclear extract, HeLaScribe)) (UniProt P08047); test: competition with a labelled probe; settings: unlabeled competitor, capacity to compete impaired; 10 mM Tris-HCl pH 7.0, 50 mM KCl; likely ug) poly dI-dC, 5% glycerol, 1 mM EDTA, 1 mM DTT; 6 ug HeLa nuclear extract, 10 fmol probe, 4 °C; protein in an extract; label: none (unlabeled competitor)
[4] = biological target: NFY (NFYA subunit identified) (Homo sapiens (HeLa nuclear extract, HeLaScribe)) (UniProt P23511); test: EMSA supershift (anti-NFYA) and self-competition; settings: HeLa nuclear extract; 10 mM Tris-HCl pH 7.0, 50 mM KCl; likely ug) poly dI-dC, 5% glycerol, 1 mM EDTA, 1 mM DTT; 6 ug HeLa nuclear extract, 10 fmol probe, 4 °C; protein in an …

“CATCAGGCTCCGCCCCACGGTCTGCGGA (double strand) [PNPT1-SP1/NRSE]”: binds [1].

“GGAGTGAGCCAAACAGGGCACAGCCTGC (double strand) [PNPT1-CAATbox-mut]”: binds more weakly [2].

“CATCAGGCTCCGAACCACGGTCTGCGGA (double strand) [PNPT1-SP1-mut]”: binds more weakly [3].

“GGAGTGAGCCAATCAGGGCACAGCCTGC (double strand) [PNPT1-CAATbox]”: binds [4].
